The text below walks through data of article PMC7465474, “Interplay of Structural Disorder and Short Binding Elements in the Cellular Chaperone Function of Plant Dehydrin ERD14” (Cells, 2020).

Results are given in words; binding and its absence hold for the method and conditions named. Binding seen in cells or lysates may run through a third protein. Here binding means that the protein was enriched with, or labelled near, the bait; the list need not be complete.

This assay addresses T1, Early Response to Dehydration 14 (ERD14) of A. thaliana, wild type, biotinylated in the cell (A. thaliana) (UniProt P42763).
T1 sequence (chain, biotin (in-cell biotinylation)): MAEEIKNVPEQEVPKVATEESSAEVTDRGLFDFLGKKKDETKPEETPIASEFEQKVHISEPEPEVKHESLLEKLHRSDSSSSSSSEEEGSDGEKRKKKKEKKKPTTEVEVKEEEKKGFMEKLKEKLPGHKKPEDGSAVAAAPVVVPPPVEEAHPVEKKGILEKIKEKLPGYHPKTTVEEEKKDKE
The experiment in a line: affinity purification with mass spectrometry; biotin-ERD14 overexpressed in E. coli AVB101; cells cross-linked with 2 mM DSP at 30 °C for 7 min, without or with prior heat stress (50 °C × 15 min); after lysis pulled down with Streptavidin-MAG-Sepharose; SDS-PAGE, in-gel trypsin digest, LC-MS/MS; background from non-biotinylated ERD14.

B1: citrate synthase (CS) (enzyme, UniProt P0ABH7 1-427)
chain: MADTKAKLTLNGDTAVELDVLKGTLGQDVIDIRTLGSKGVFTFDPGFTSTASCESKITFIDGDEGILLHRGFPIDQLATDSNYLEVCYILLNGEKPTQEQYDEFKTTVTRHTMIHEQITRLFHAFRRDSHPMAVMCGITGALAAFYHDSLDVNNPRHREIAAFRLLSKMPTMAAMCYKYSIGQPFVYPRNDLSYAGNFLNMMFSTPCEPYEVNPILERAMDRILILHADHEQNASTSTVRTAGSSGANPFACIAAGIASLWGPAHGGANEAALKMLEEISSVKHIPEFVRRAKDKNDSFRLMGFGHRVYKNYDPRATVMRETCHEVLKELGTKDDLLEVAMELENIALNDPYFIEKKLYPNVDFYSGIILKAMGIPSSMFTVIFAMARTVGWIAHWSEMHSDGMKIARPRQLYTGYEKRDFKSDIKR
As to B1, the binding entry is “binds”.
